Test system: HCT116 cell line
Assay: Sulforhodamine B (SRB) cytotoxicity assay
Type: cell-based
Conditions: Homo sapiens; HCT 116 cell line, 24-h incubation
Method: Assessment of cytotoxicity for the given samples on the HCT116 cell line was conducted using the SRB Assay. This involved cultivating cells quantity of (8000 cells/well) in 96-well plate for 24 h in DMEM medium which was continuously nourished with solution of 1 % antibiotic solution at 37 °C and 10 % FBS and 5 % CO2. These cells were treated in varied different concentrations dosage of 1–2500 μM on next day. Various concentrations were prepared in an incomplete medium. Following a 24-h incubation period, 100 μL of Tri Chloro Acetic Acid (TCA, 10 %) was introduced to each well, and plate was incubated for an additional hour. Subsequently, the plate was washed with DM water and air-dried at room temperature. SRB Solution, with a final concentration of 0.04 %, was applied to each well and allowed to sit for 1 h. After this incubation period, the plate underwent washing with 1 % (v/v) acetic acid to eliminate unbound dye, followed by air-drying at room temperature. Tris base solution (pH = 10.5) was added to each well and shaken on an orbital shaker for 10 min to solubilize the protein-bound dye. The absorbance was measured using an Elisa plate reader (iMark, Biorad, USA) at 510 nm.

CNC(=O)c1ccc(N2C(=S)N(c3ccc(C#N)c(C(F)(F)F)c3)C(=O)C2(C)C)cc1F [ENZ, Enzalutamide]
IC50: 134 µM
